Laboratory results reported in paper PMC12670160, “A drug-repurposing screen of FDA- and EMA-approved drugs identifies two NF-κB inhibitors active against eumycetoma” (Journal of Antimicrobial Chemotherapy, 2025).
Structures can show the parent of a compound that is named as a salt. Where two headings read alike, the source gives them in different places. Hit rate of the full screen: of about 5,300 compounds, about 130 (2.5%) showed an effect of 50% or more. This is one part of the list.

Tested on: M. mycetomatis strain mm55
Details: primary screen, metabolic activity vs growth control, 96 h, 2 µM, inhibitor

Row | SMILES | % viability [%] | % viability (Madurella mycetomatis metabolic activity at 2µM (%)) [%]
1 | CC(C)OC(=O)C(C)(C)Oc1ccc(C(=O)c2ccc(Cl)cc2)cc1 [ONC0003204, fenofibrate] | 122.8 | –
2 | OCCOc1ccc(/C(=C(/CCCl)c2ccccc2)c2ccccc2)cc1 [ONC0005170, ospemifene] | 96.53 | –
3 | C=C1CC/C=C(\C)CC[C@@H]2[C@@H]1CC2(C)C [ONC0002179, gcaryophyllene] | 84.29 | –
4 | Cc1c(O)c(=O)n(-c2ccccc2)n1C [ONC0002305, 4hydroxyphenazone] | 52.96 | –
5 | NCCCC[C@H](NC(=O)[C@@H](Cc1cc(Br)c(O)c(Br)c1)NC(=O)N1CCC(N2Cc3ccccc3NC2=O)CC1)C(=O)N1CCN(c2ccncc2)CC1 [ONC0002023, olcegepant] | 109.7 | –
6 | Nc1nc(=O)n([C@H]2C[C@H](O)[C@@H](CO)O2)cc1Cl [ONC0003690, 5chloro2deoxycytidine] | 55.79 | –
7 | CNC(=O)c1ccc(Nc2ncc(C(F)(F)F)c(NCc3nccnc3N(C)S(C)(=O)=O)n2)cc1 [ONC0002028, defactinib] | 71.09 | –
8 | CCOC(=O)[C@@H](N)CCC(=O)N[C@@H](CSCc1ccccc1)C(=O)N[C@@H](C(=O)OCC)c1ccccc1 [ONC0000839, ezatiostat] | 71.7 | –
9 | Cn1c(-c2ccccc2)nnc1S(C)(=O)=O [ONC0003665, mdl27531] | 82.05 | –
10 | Cc1cc(C(=O)O)sc1C(N)C(=O)O (stereo not shown) [ONC0000056, 3matida] | 81.23 | –
11 | CN1C(=O)C(Cc2c[nH]c3ccccc23)NC1=S (stereo not shown) [ONC0003684, necrostatin1] | 40.84 | –
12 | CCC[C@H](N[C@H]1CCc2cc(F)cc(F)c2C1)C(=O)Nc1cn(C(C)(C)CNCC(C)(C)C)cn1 [ONC0002442, nirogacestat] | 128.8 | –
13 | CCOC(=S)SSC(=S)OCC [ONC0002273, dixanthogen] | 55.69 | –
14 | Cc1cc2c(s1)Nc1ccccc1N=C2N1CCN(C)CC1 [ONC0004243, olanzapine] | 89.12 | –
15 | CCN(CC)CCOc1ccc(Nc2ncc3cc(-c4c(Cl)cccc4Cl)c(=O)n(C)c3n2)cc1 [ONC0001435, pd166285] | 73.8 | –
16 | NS(=O)(=O)c1ccc(S(=O)(=O)Nc2cccc3c(Cl)c[nH]c23)cc1 [ONC0005426, indisulam] | 79.71 | –
17 | O=C1c2ccccc2C(=O)C1c1ccc(Br)cc1 [ONC0004017, bromindione] | 66.39 | –
18 | NC(=O)CC[C@H](N)C(=O)O [ONC0004823, lglutamine] | 90.98 | –
19 | COc1cc(N)c(Cl)cc1C(=O)N[C@@H]1CCN(CCCOc2ccc(F)cc2)C[C@@H]1OC (racemic) [ONC0002671, cisapride] | 79.76 | –
20 | CCn1c(-c2nonc2N)nc2c(C#CC(C)(C)O)ncc(OC[C@H]3CCCNC3)c21 [ONC0004928, gsk690693] | 97.5 | –
21 | O=S(=O)(O)Oc1ccc(C(c2ccc(OS(=O)(=O)O)cc2)c2ccccn2)cc1 [ONC0004819, sodium picosulfate] | 71.74 | –

Molecules from the list above that have nitrogen in an aromatic ring:
Row | SMILES | % viability [%] | % viability (Madurella mycetomatis metabolic activity at 2µM (%)) [%]
4 | Cc1c(O)c(=O)n(-c2ccccc2)n1C [ONC0002305, 4hydroxyphenazone] | 52.96 | –
5 | NCCCC[C@H](NC(=O)[C@@H](Cc1cc(Br)c(O)c(Br)c1)NC(=O)N1CCC(N2Cc3ccccc3NC2=O)CC1)C(=O)N1CCN(c2ccncc2)CC1 [ONC0002023, olcegepant] | 109.7 | –
6 | Nc1nc(=O)n([C@H]2C[C@H](O)[C@@H](CO)O2)cc1Cl [ONC0003690, 5chloro2deoxycytidine] | 55.79 | –
7 | CNC(=O)c1ccc(Nc2ncc(C(F)(F)F)c(NCc3nccnc3N(C)S(C)(=O)=O)n2)cc1 [ONC0002028, defactinib] | 71.09 | –
9 | Cn1c(-c2ccccc2)nnc1S(C)(=O)=O [ONC0003665, mdl27531] | 82.05 | –
11 | CN1C(=O)C(Cc2c[nH]c3ccccc23)NC1=S (stereo not shown) [ONC0003684, necrostatin1] | 40.84 | –
12 | CCC[C@H](N[C@H]1CCc2cc(F)cc(F)c2C1)C(=O)Nc1cn(C(C)(C)CNCC(C)(C)C)cn1 [ONC0002442, nirogacestat] | 128.8 | –
15 | CCN(CC)CCOc1ccc(Nc2ncc3cc(-c4c(Cl)cccc4Cl)c(=O)n(C)c3n2)cc1 [ONC0001435, pd166285] | 73.8 | –
16 | NS(=O)(=O)c1ccc(S(=O)(=O)Nc2cccc3c(Cl)c[nH]c23)cc1 [ONC0005426, indisulam] | 79.71 | –
20 | CCn1c(-c2nonc2N)nc2c(C#CC(C)(C)O)ncc(OC[C@H]3CCCNC3)c21 [ONC0004928, gsk690693] | 97.5 | –
21 | O=S(=O)(O)Oc1ccc(C(c2ccc(OS(=O)(=O)O)cc2)c2ccccn2)cc1 [ONC0004819, sodium picosulfate] | 71.74 | –

Remaining list, next part

Row | SMILES | % viability [%] | % viability (Madurella mycetomatis metabolic activity at 2µM (%)) [%]
22 | COc1cc2c(NC3CCN(C)CC3)nc(N3CCCN(C)CC3)nc2cc1OCCCN(C)C [ONC0000276, unc0224] | 85.54 | –
23 | CSc1ccc(C(=O)N[C@@H]2CCCC[C@@H]2NC(=O)CNC(=O)c2cc(C(F)(F)F)ccc2NC(=O)NC(C)C)cc1 [ONC0000833, bmsccr222] | 73.52 | –
24 | CCCN1CCC[C@@H]2Cc3nc(N)ncc3C[C@H]21 [ONC0001950, ly1635022hcl] | 76.14 | –
25 | O=C(O)c1ccccc1O [ONC0000613, salicylic acid] | 77.17 | –
26 | O=c1oc2cc(O)ccc2s1 [ONC0002844, tioxolone] | 91.28 | –
27 | Cc1[nH]nc(C(F)(F)F)c1Cc1sc2c(c1C(=O)N1C[C@](C)(O)CO1)c(=O)n(C)c(=O)n2C(C)C [ONC0002039, azd3965] | 59.03 | –
28 | CCCCCCCCCCCCOS(=O)(=O)O [ONC0004120, dodecylsulfate] | – | 112
29 | COc1cc2ncnc(Nc3cccc(Cl)c3)c2cc1OC [ONC0005034, ag1478 tyrphostin ag1478] | 64.21 | –
30 | CCCCc1ccc2[nH]c(NC(=O)OC)nc2c1 [ONC0002804, parbendazole] | 94.34 | –
31 | O=C(O)[C@H](CC(=O)N1C[C@H]2CCCC[C@H]2C1)Cc1ccccc1 [ONC0004972, mitiglinide calcium] | 100.8 | –
32 | c1coc(CNc2ncnc3[nH]cnc23)c1 [ONC0004770, kinetin 6furfuryladenine] | 92 | –
33 | CS(=O)(=O)c1ccc(-c2nnc(/C=C/c3nnc(-c4ccc(C#N)cc4)o3)n2-c2ccccc2Cl)nc1 [ONC0002082, g007lk] | 77.8 | –
34 | CCOc1ccc2nc(S(N)(=O)=O)sc2c1 [ONC0004143, ethoxzolamide] | 89.88 | –
35 | N[C@H](C(=O)O)c1ccc(O)cc1 [ONC0003544, oxfenicine] | 86.91 | –
36 | C[C@@H]1C[C@H]2[C@@H]3CCC4=CC(=O)C=C[C@]4(C)[C@@]3(Cl)[C@@H](O)C[C@]2(C)[C@@]1(OC(=O)c1ccco1)C(=O)CCl [ONC0004208, mometasone furoate] | 101.4 | –
37 | CN1CCCN(C(c2ccccc2)c2ccc(Cl)cc2)CC1 (stereo not shown) [ONC0001961, homochlorcyclizine2hcl] | 90.66 | –
38 | CCOC(=O)[C@H](CCc1ccccc1)N[C@@H](C)C(=O)N1C(=O)N(C)C[C@H]1C(=O)O [ONC0004912, imidapril hcl] | 151.6 | –
39 | CCOC(=O)c1cnc2c(cnn2CC)c1NN=C(C)C [ONC0001658, etazolate] | 80.47 | –
40 | COCC1(CO)C(=O)C2CCN1CC2 (stereo not shown) [ONC0000386, apr246] | 84.84 | –
41 | O=C(O)c1cc(/N=N/c2ccc(S(=O)(=O)Nc3ccccn3)cc2)ccc1O [ONC0000599, sulfasalazine] | 109.1 | –
42 | O=C(O)c1cc2cc(Cc3cccnc3)ccc2o1 [ONC0005322, furegrelate] | 108.8 | –

Whole records from above. Order of values: % viability [%]	% viability (Madurella mycetomatis metabolic activity at 2µM (%)) [%]
`CCOC(=O)[C@H](CCc1ccccc1)N[C@@H](C)C(=O)N1C(=O)N(C)C[C@H]1C(=O)O` [ONC0004912, imidapril hcl] is listed with 151.6	–
`O=c1oc2cc(O)ccc2s1` [ONC0002844, tioxolone] is listed with 91.28	–

Continuation.

Row | SMILES | % viability [%] | % viability (Madurella mycetomatis metabolic activity at 2µM (%)) [%]
43 | C#C[C@]1(O)CC[C@H]2[C@@H]3CCC4=CC(=O)CC[C@@H]4[C@H]3C(=C)C[C@@]21CC [ONC0003491, etonogestrel] | 53.49 | –
44 | c1ccc(-c2oc3ncnc(NC[C@@H]4CCCO4)c3c2-c2ccccc2)cc1 [ONC0000129, aim100] | 120.6 | –
45 | NC(=O)c1ccc(I)c([N+](=O)[O-])c1 [ONC0004703, iniparib bsi201] | 114 | –
46 | CC(C)N(CCCCOCC(=O)NS(C)(=O)=O)c1cnc(-c2ccccc2)c(-c2ccccc2)n1 [ONC0001764, selexipag] | 94.67 | –
47 | CCOC(=O)C1CSC(Cc2ccc(OCc3ccc([N+](=O)[O-])cc3)cc2)N1 (stereo not shown) [ONC0004441, sn6] | 158 | –
48 | CC(C)C[C@H](NC(=O)CN(C)C(=O)[C@H](Cc1ccccc1)NC(=O)[C@H](Cc1ccccc1)NC(=O)[C@H](CCC(N)=O)NC(=O)[C@H](CCC(N)=O)NC(=O)[C@@H]1CCCN1C(=O)[C@H](CCCCN)NC(=O)[C@@H]1CCCN1C(=O)[C@@H](N)CCCNC(=N)N)C(=O)N[C@@H](CCS(C)(=O)=O)C(N)=O [ONC0003648, sar9meto211substance p] | 64.96 | –
49 | CCc1cccc(CC)c1NC(=O)CN(CC(=O)O)CC(=O)O [ONC0002329, etifenin] | 55.77 | –
50 | C/C(=C\C(=O)OCCCCCCCCC(=O)O)C[C@@H]1OC[C@H](C[C@@H]2O[C@H]2[C@@H](C)[C@H](C)O)[C@@H](O)[C@H]1O [ONC0001840, mupirocin] | 91.16 | –
51 | N#C/C(=C\c1ccc(O)c(O)c1)C(=O)NCCCc1ccccc1 [ONC0003345, ag555] | 91.13 | –
52 | CC1CCN=C(N)S1 (stereo not shown) [ONC0000196, aminomethyltransferase] | 85.97 | –
53 | Nc1cc(N2CCCCC2)nc(N)[n+]1[O-] [ONC0000367, minoxidil] | 72.4 | –
54 | C=CCN1CC[C@]23c4c5ccc(O)c4O[C@H]2[C@@H](OCCOCCOCCOCCOCCOCCOCCOC)CC[C@@]3(O)[C@H]1C5 [ONC0002095, naloxegol oxalate] | 65.87 | –
55 | C[N+](C)(C)CC(O)CC(=O)O (stereo not drawn) [ONC0003265, carnitine dl hydrochloride] | 68.88 | –
56 | C[C@]12CCC(=O)C=C1[C@@H]1C[C@@H]1[C@H]1[C@@H]3[C@@H]4C[C@@H]4[C@@]4(CCC(=O)O4)[C@@]3(C)CC[C@@H]12 [ONC0002429, drospirenone] | 86.56 | –
57 | O=C(Nc1cccc2cccnc12)c1ccc(N2C(=O)[C@@H]3[C@H](C2=O)[C@H]2C=C[C@@H]3C2)cc1 [ONC0001412, exoiwr1] | 97.11 | –
58 | COc1ccc2[nH]c3c(-c4cccc5ccccc45)nccc3c2c1 [ONC0003161, sp141] | 97.8 | –
59 | N=C(N)c1ccc(/N=N/Nc2ccc(C(=N)N)cc2)cc1 [ONC0004027, diminazene aceturate] | 81.99 | –
60 | CCN(CC)C(=O)N[C@H]1CC2c3cccc4[nH]cc(c34)CC2N(C)C1 (stereo partly shown) [ONC0002019, terguride] | 81.88 | –
61 | O=C(O)/C=C1\CCCc2ccccc2C1O (stereo not shown) [ONC0000167, ncs382] | 89.17 | –
